Results from article PMC9681059.
Substitutions are numbered along the chain they refer to. These are yes or no findings as the source states them, for the method shown. Binding seen in cells or lysates may run through a third protein. Some entries that bind do so weakly or less than the wild type. Tags and fused reporters may be left off the sequences shown.

The chains behind the UniProt entries cited, without tags or fusion partners. Where a name states a change or a piece, a line headed by the entry shows the natural chain unless it says otherwise. A line that says so, or that is headed by a name, gives the form on record, which may keep a tag or linker.
Cerulean-tagged β2B-subunit (WT) (Q08289, form named): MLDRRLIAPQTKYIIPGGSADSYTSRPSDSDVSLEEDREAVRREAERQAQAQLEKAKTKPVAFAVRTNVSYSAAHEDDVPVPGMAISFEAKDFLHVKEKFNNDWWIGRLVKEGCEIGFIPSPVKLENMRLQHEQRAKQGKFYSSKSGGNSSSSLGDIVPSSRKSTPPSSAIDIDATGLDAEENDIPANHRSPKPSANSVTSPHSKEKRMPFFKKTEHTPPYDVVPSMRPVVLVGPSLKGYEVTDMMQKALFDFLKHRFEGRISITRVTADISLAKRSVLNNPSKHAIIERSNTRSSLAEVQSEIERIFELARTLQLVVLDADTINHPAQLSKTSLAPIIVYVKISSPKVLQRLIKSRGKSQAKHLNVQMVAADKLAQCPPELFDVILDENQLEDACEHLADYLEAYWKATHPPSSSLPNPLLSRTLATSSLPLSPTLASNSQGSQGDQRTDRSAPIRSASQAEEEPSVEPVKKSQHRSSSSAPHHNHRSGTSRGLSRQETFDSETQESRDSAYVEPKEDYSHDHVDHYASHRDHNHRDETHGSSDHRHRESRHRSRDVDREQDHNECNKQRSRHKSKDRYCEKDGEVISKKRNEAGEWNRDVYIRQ

B1: Venus-tagged WT Rad (protein, UniProt O88667 1-308)
chain: MTLNGGSGASGSRGAGGRERDRRRGSTPWGPAPPLHRRSMPVDERDLQAALAPGSLATTAAGTRTQGQRLDWPEGSSDSLSSGGSGSEEGVYKVLLLGAPGVGKSALARIFGGIEDGPEAEAAGHTYDRSITVDGEEASLLVYDIWEEDGGCWLPGHCMAMGDAYVIVYSITDKGSFEKASELRVQLRRARQTDDVPIILVGNKSDLVRSREVSVDEGRACAVVFDCKFIETSAALHHNVQALFEGVVRQIRLRRDSKEDNARRQAGTRRRESLGKKAKRFLGRIVARNSRKMAFRAKSKSCHDLSVL
B2: Venus-tagged 4SA-Rad (protein, UniProt O88667 1-308)
chain: B1 chain with S26A, S39A, S273A, S301A

Target: Cerulean-tagged β2B-subunit (WT) (human) (UniProt Q08289)
Test: FRET or BRET; flow cytometric FRET two-hybrid assay in transfected HEK293T cells, 1 d post-transfection, cycloheximide 100 μM for 2 h; Cer-tagged β2B variants with Ven-tagged partners; FRET efficiency against free Ven-tagged partner, 1:1 binding isotherm, Kd,EFF; in some samples calyculin A 100 nM for 10 min

Binder | binding
B1 | binds
B2 | binds
